# Results published in PubChem BioAssay AID588391 (Broad Institute, 2011).
# Sequences of proteins named here, by UniProt entry; tags and fusion partners are left off.
# UniProt P07237, whole entry, looked up: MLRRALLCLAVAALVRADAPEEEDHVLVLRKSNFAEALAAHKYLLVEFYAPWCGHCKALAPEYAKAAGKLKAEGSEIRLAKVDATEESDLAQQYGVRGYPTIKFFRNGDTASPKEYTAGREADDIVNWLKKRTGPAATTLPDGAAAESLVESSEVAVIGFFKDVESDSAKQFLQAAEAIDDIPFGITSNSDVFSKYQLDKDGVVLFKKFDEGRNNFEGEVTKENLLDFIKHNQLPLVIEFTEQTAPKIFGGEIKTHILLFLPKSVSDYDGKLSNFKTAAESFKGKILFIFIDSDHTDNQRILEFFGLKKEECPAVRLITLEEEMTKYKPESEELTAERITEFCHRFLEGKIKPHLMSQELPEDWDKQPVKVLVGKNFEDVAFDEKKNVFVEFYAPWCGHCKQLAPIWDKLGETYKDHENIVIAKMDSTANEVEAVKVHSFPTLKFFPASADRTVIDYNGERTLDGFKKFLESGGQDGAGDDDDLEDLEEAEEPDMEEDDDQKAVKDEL
# “And” between values parts separate entries of the source, which are not always exact repeats. Equal values may be shown once. About 180 (0.051%) of roughly 350,000 compounds were called active. Inconclusive means that the source gave no clear call. Such entries were picked first, then a sample of the others.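 The calls were made as follows: active = mean inhibition across replicates of 30% or more, whatever share of single replicates reach that level; inconclusive = mean inhibition below 30% while every single replicate reaches 30%; inactive = the rest.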
# Molecular target: Protein disulfide-isomerase (Homo sapiens) (UniProt P07237)
# Test: blockers of PDI-driven insulin aggregation – biochemical, turbidity, single point, plate reader, primary screen (AID 588391);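 also: absorbance from insulin aggregation driven by PDI reduction with DTT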
# Settings: A650, 90 min, at 10 µM, active compounds read high
row,Compound,inhibition
1,C[C@@H]1O[C@@H](Oc2c(-c3cc(O)c(O)c(O)c3)oc3cc(O)cc(O)c3c2=O)[C@H](O)[C@H](O)[C@H]1O,active: 47.4%
2,O=C1[C@@H]2C(Cc3ccc(O)cc3)NC3(C(=O)Nc4ccc(F)cc43)[C@@H]2C(=O)N1c1ccccc1 (stereo partly specified),inconclusive: 31.3%
3,O=C(Nc1ccc2c(c1)OCO2)c1cccc(S(=O)(=O)N2CCCC2)c1,inactive: -5.74%
4,Fc1ccc(/C=N/Nc2ccccn2)cc1,inactive: 0.117%
5,O=C(CCl)Nc1ccccc1Sc1ccc(Cl)cc1,active: 49.9%
6,O=C(CNC(=O)c1cccc(Br)c1)N/N=C/c1cn[nH]c1-c1ccccc1,inactive: 1.32%
7,CC1CCN(C(c2ccc(N(C)C)cc2)c2nnnn2Cc2ccc(F)cc2)CC1 (stereo unspecified),inactive: -13.7%
8,COc1ccc(-c2nnc3ccc(SCC(=O)Nc4nc5ccccc5s4)nn23)cc1OC,inconclusive: 40.4%
9,O=C(NCCCN1CCOCC1)C(Sc1ccccc1)c1ccccc1 (stereo unspecified),inconclusive: 39.1%
10,COc1ccc(C(=O)c2c(C)c3cc(C)ccc3n2CC(O)CN2CCOCC2)cc1 (stereo unspecified),inconclusive: 32.3%
11,CCOC(=O)c1c(CN(C)C)n(-c2ccc(C)cc2)c2cc(Br)c(O)cc12,active: 49.3%
12,OCCSc1nncn1/N=C/c1c[nH]c2ccccc12,inconclusive: 32.3%
13,COc1ccc(CNC(=O)C(c2ccncc2)N(C(=O)Cc2cccs2)c2ccccc2)cc1 (stereo unspecified),inactive: -0.443%
14,OCCC1CN(Cc2cccn2-c2ccccn2)CCN1C1CCCCC1 (stereo unspecified),inconclusive: 30.6%
15,CC[C@]12c3[nH]c4cc(-c5ccco5)ccc4c3CCN1C(=O)[C@@H](CC(=O)NCC13CC4CC(CC(C4)C1)C3)C[C@@H]2C(=O)N1CCN(C(=O)c2ccco2)CC1,inconclusive: 30.9%
16,CN1CCN(C(=O)CSc2nnc(COc3ccc(Cl)cc3)o2)CC1,inconclusive: 66.5%
17,C#CCOCCOCCOCCNc1nc(N2CCN(C(=O)[C@H](CCC(=O)O)n3cc(C(N)CC(C)C)nn3)CC2)nc(N2CCN(C(=O)[C@H](Cc3cc4ccccc4[nH]3)n3cc(C(N)CC(C)C)nn3)CC2)n1 (stereo partly specified),active: 35.6%
18,Cn1cnnc1Sc1ccc(/C=C/C(=O)c2ccc(O)cc2)cc1[N+](=O)[O-],inconclusive: 34.2%
19,Nc1c(C(=O)c2ccccc2)sc2snc(SCC(=O)c3ccccc3)c12,inconclusive: 34.9%
20,COc1ccc(/C=N\NC(=O)CCN2CCN(c3ccccc3)CC2)cc1OC,inactive: 8.61%
21,O=C(O)c1ccccc1C(=O)Nc1ccccn1,inactive: -3.28%

row,Compound,inhibition
1,C[C@@H]1O[C@@H](OC[C@@H]2O[C@H](Oc3c(-c4ccc(O)cc4)oc4cc(O)cc(O)c4c3=O)[C@@H](O)[C@H](O)[C@H]2O)[C@H](O)[C@H](O)[C@H]1O,active: 65.3%
2,CC(O)(c1cccnc1)c1nc(-c2cc(F)cc(F)c2)cs1 (stereo unspecified),inconclusive: 83.1%
3,Cc1ccc(/C=C/C(=O)c2ccc(O)cc2)cc1,inconclusive: 30.3%
4,CSc1nc(SCC(=O)O)c2sc3nc(-c4ccccc4)c4c(c3c2n1)CCC4,active: 52.5%
5,O=C(Nc1ccccc1F)NC1CC1,inconclusive: 42.5%
6,CN1C2CCC1/C(=C/c1cccn1C)C(=O)/C2=C\c1cccn1C,inactive: 0.601%
7,COc1ccc(C[C@@H]2CN3C(=NC[C@@H]3Cc3ccc(O)cc3)N2C[C@H](C)NC(=O)CCC2CCCCC2)cc1,active: 40.4%
8,CC(=O)OCC(=O)NCc1ccc2c(c1)OCO2,inconclusive: 33.6%
9,O=C(O)c1ccccc1/C=N/NC(=O)C1CCCC1,inactive: 9.05%
10,O=c1c(O[C@@H]2O[C@H](CO)[C@@H](O)[C@H](O)[C@H]2O)c(-c2ccc(O)cc2)oc2cc(O)cc(O)c12,active: 37.1%
11,CCOC(=O)C1CCN(c2c(NCCCN(C)C3CCCCC3)c(=O)c2=O)CC1,active: 34.3%
12,Cc1ccc(C)c(N2CCN(S(=O)(=O)c3ccc4c(c3)OCCO4)CC2)c1,inconclusive: 32.9%
13,c1ccc(-c2csc(NC3=NCCCCC3)n2)cc1,inconclusive: 42.2%
14,OCCNc1ncnc2c1ncn2[C@H]1CN(Cc2ccc(-c3ccccc3)cc2)C[C@@H](CO)O1,inactive: 6.09%
15,CCOc1ccc(C(=O)NCC(=O)OCC(=O)N(C)CC(=O)Nc2ccccc2CC)cc1OCC,inconclusive: 43.3%
16,Cn1nnnc1SCC(=O)Nc1cc(C(F)(F)F)ccc1N1CCOCC1,inconclusive: 39.3%
17,CC1C(=O)N(Cc2cn(CC3CCCCC3)nn2)CCS(=O)(=O)N1Cc1ccc(-c2ccc(Cl)cc2)cc1 (stereo unspecified),inactive: 0.512%
18,CN(C1=NC(=O)C(CC(=O)Nc2ccc(Br)cc2)S1)c1ccc(O)cc1 (stereo unspecified),active: 61%
19,NC(=O)c1ccc(N2CCN(c3ccc(O)cc3)CC2)c([N+](=O)[O-])c1,inactive: -5.37%
20,CC(=O)Oc1ccccc1C(=O)C=Cc1cccc([N+](=O)[O-])c1,inconclusive: 31%
21,O=C(CCc1nc(-c2ccccc2F)no1)Nc1ccc(Oc2ccccc2)cc1,inconclusive: 31.3%

row,Compound,inhibition
1,COc1ccc(N2CCN(CC(=O)c3ccc(O)c(C)c3O)CC2)cc1,inconclusive: 36.6%
2,Cc1ccc(Sc2ccc(NC(=O)CCl)cc2)cc1C,inconclusive: 36%
3,COc1ccc(OC)c(NC(=O)CCN2CCN(c3ccccc3)CC2)c1,inactive: -0.781%
4,COc1ccc(/C=C/C(=O)c2cc(F)ccc2OC(=O)c2ccccc2OC)cc1OC,inconclusive: 31.8%
5,C=CCn1c(C(CCCC)CC(O)COCC(C)C)n[nH]c1=S (stereo unspecified),inconclusive: 31.5%
6,COc1cc(/C=C2\SC(=S)N(NS(=O)(=O)c3ccccc3)C2=O)ccc1O,active: 40.8%
7,Cc1ccc2nc(N3CCN(Cc4nnnn4C4CCCC4)CC3)c(C#N)cc2c1,inconclusive: 32.4%
8,Cc1ccc(S(=O)(=O)c2ccc(Oc3cccc(C)c3)cc2)cc1,active: 31.6%
9,CCOc1ccc2c(c1)c(N=NC(=N)N)c(O)n2C,inconclusive: 40.1%
10,COc1ccc(/C=C2\Sc3ccc(C(=O)NCCCN4CCCC4)cc3N(C)C2=O)cc1OC,inconclusive: 58%
11,COc1cc2c(cc1OC)C1C(C(=O)Nc3ccccc3N3CCN(C)CC3)c3ccccc3C(=O)N1CC2 (stereo unspecified),inconclusive: 43%
12,O=C(Nc1cccc(NC(=O)c2ccccc2Cl)c1)c1ccc([N+](=O)[O-])o1,inactive: -2.43%
13,Nc1nc(SCC(=O)Nc2cc(S(=O)(=O)N3CCOCC3)ccc2Cl)n[nH]1,inactive: 5.7%
14,Cc1cc(O)cc2c1C1CCC3(C)C(=O)CCC3C1C=C2 (stereo unspecified),inconclusive: 31%
15,COc1ccc(/C=C2\CN(Cc3ccccc3)C/C(=C\c3ccc(OC)c(O)c3)C2=O)cc1O,active: 54.5%
16,COc1ccc(-n2cnc3c(sc4nccc(N(C)C)c43)c2=O)cc1,inconclusive: 31.1%
17,CSc1cccc(NC(=O)CN(C)S(=O)(=O)c2ccc(F)cc2)c1,inconclusive: 31.2%
18,Cc1c(O)ccc2c(CN3CCN(Cc4ccccc4)CC3)cc(=O)oc12,inconclusive: 34.6%
19,CN(/N=C/c1c[nH]c2ccccc12)c1cnn(-c2ccc(F)c(Cl)c2)c(=O)c1Cl,inactive: -2.91%
20,CC(=O)NC(Cc1c[nH]c2ccccc12)C(=O)OCC(=O)N1CCN(S(=O)(=O)c2ccc(Cl)cc2)CC1 (stereo unspecified),active: 31.6%
21,Cc1ccc(C)c(CSc2nnc(-c3cccnc3)o2)c1,inactive: -5.78%

row,Compound,inhibition
1,Cc1ccc(-n2ncc3c(=O)[nH]c(SCC(=O)N4CCCc5ccccc54)nc32)cc1,inconclusive: 30.3%
2,O=c1c(O[C@H]2O[C@@H](CO)[C@H](O)[C@@H](O)[C@@H]2O)c(-c2ccc(O)cc2)oc2cc(O)cc(O)c12,active: 63%
3,O=C1C[C@@H](c2ccc(O[C@@H]3O[C@H](CO)[C@@H](O)[C@H](O)[C@H]3O)cc2)Oc2cc(O)ccc21,active: 35.7%
4,COc1ccc(-c2nnc(SCC(=O)Nc3ccccc3OC)o2)cc1,inactive: -2.15%
5,CCOC(=O)c1c(-c2ccccc2)oc2cc(Br)c(O)cc12,active: 36.3%
6,CCS(=O)(=O)NCC(c1ccco1)N1CCN(c2ccccc2)CC1 (stereo unspecified),inactive: -3.1%
7,Oc1ccc(N2CCN(Cc3cc4c(cc3Br)OCCO4)CC2)cc1,active: 76.4%
8,C=CCN1C(=O)/C(=C/c2ccc(OC(C)=O)c(OCC)c2[N+](=O)[O-])SC1=S,inconclusive: 32.6%
9,CC[C@]12c3[nH]c4cc(-c5ccco5)ccc4c3CCN1C(=O)[C@@H](CC(=O)NCc1ccc(OC)c(OC)c1)C[C@@H]2C(=O)N1CCN(C(=O)C2CC2)CC1,active: 37%
10,Cc1cc(Br)cc2c(C(=O)NCC3CCCO3)cc(-c3cccs3)nc12 (stereo unspecified),inactive: -4.25%
11,O=C(O)CN1C(=O)c2ccc(Oc3cccc4c3C(=O)N(CC(=O)O)C4=O)cc2C1=O,inactive: 0.159%
12,CCOc1nc(-c2ccncc2)nc2ccccc12,inconclusive: 47.4%
13,O=C(Cc1ccccc1)NC1CCN(Cc2ccccc2)CC1,inactive: -1.57%
14,C[C@@H]1O[C@@H](Oc2c(-c3ccc(O)c(O)c3)oc3cc(O)cc(O)c3c2=O)[C@H](O)[C@H](O)[C@H]1O,active: 62.4% and active: 73%
15,CCOc1ccc(/C=N/OC(C)C(=O)NCc2ccc3c(c2)OCO3)cc1 (stereo unspecified),inconclusive: 31.6%
16,CC(C)N1CCCC(C)(C(=O)Nc2nc3ccccc3n2C)C1 (stereo unspecified),inconclusive: 110%
17,Cc1[nH]c2ccc(C(=O)NC3CCCC3)cc2c1C,inconclusive: 32.5%
18,CCn1c(=NC(=O)CSC(C)=O)sc2ccccc21,inconclusive: 37.5%

# Compounds above that have a furan ring, fused or not, in the order listed:
row,Compound,inhibition
15,CC[C@]12c3[nH]c4cc(-c5ccco5)ccc4c3CCN1C(=O)[C@@H](CC(=O)NCC13CC4CC(CC(C4)C1)C3)C[C@@H]2C(=O)N1CCN(C(=O)c2ccco2)CC1,inconclusive: 30.9%
12,O=C(Nc1cccc(NC(=O)c2ccccc2Cl)c1)c1ccc([N+](=O)[O-])o1,inactive: -2.43%
5,CCOC(=O)c1c(-c2ccccc2)oc2cc(Br)c(O)cc12,active: 36.3%
6,CCS(=O)(=O)NCC(c1ccco1)N1CCN(c2ccccc2)CC1 (stereo unspecified),inactive: -3.1%
9,CC[C@]12c3[nH]c4cc(-c5ccco5)ccc4c3CCN1C(=O)[C@@H](CC(=O)NCc1ccc(OC)c(OC)c1)C[C@@H]2C(=O)N1CCN(C(=O)C2CC2)CC1,active: 37%
